{"source": "patent US11123413B2", "about": "“Carbapenemases for use with antibiotics for the protection of the intestinal microbiome” (priority 2015, dated 2021)", "molecules": {"B1": {"name": "P2A: broad spectrum carbapenemase, class B metallo-enzyme requiring zinc, SEQ ID NO: 37; P2A-21 = product of strain SYT-PP0602-21 (protein)", "chain": "ETGTISISQLNKNVWVHTELGYFNGEAVPSNGLVLNTSKGLVLVDSSWDNKLTKELIEMVEKKFQKRVTDVIITHAHADRIGGITALKERGIKAHSTALTAELAKNSGYEEPLGDLQTITSLKFGNTKVETFYPGKGHTEDNIVVWLPQYQILAGGCLVKSAEAKDLGNVADAYVNEWSTSIENVLKRYGNINSVVPGHGEVGDKGLLLHTLDLLK"}}, "experiment": "P2A concentration estimate and specific activity in cell lysates (CENTA assay, P2A protein standard)", "type": "biochemical", "conditions": "BLR (DE3) P2A Clone 1 lysate, replicates 1 and 2", "experimental": "To achieve an estimate of the amount of P2A protein in each of the lysates, dilutions of the lysates (5 ul, 2.5 ul, 1.3 ul, and 0.63 ul) were evaluated on SDS/PAGE compared to dilutions of a purified P2A standard protein (2.0 ug, 1.0 ug, 0.5 ug, 0.25 ug, 0.13 ug). Based on the P2A protein band intensities, an estimate of the amount of P2A protein in each of the lysates was obtained. The biological activity of the P2A protein in the cell lysates under the different lysing conditions was evaluated using the CENTA chromogenic assay compared to the biological activity of the P2A protein standard. The biological activity was normalized based on the P2A protein concentration estimate and an estimated P2A specific activity was obtained. […] The P2A expression cassette without the leader will be used for future studies.\nBased on the P2A protein band intensities, an estimate of the amount of P2A protein in each of the lysates was obtained. The biological activity of the P2A protein in these cell lysates was evaluated using the CENTA chromogenic assay compared to the biological activity of the P2A protein standard. The biological activity was normalized based on the P2A protein concentration estimate and an estimated P2A specific activity was obtained.", "note": "“And” between values parts separate entries of the source, which are not always exact repeats. Equal entries are not always repeated."}
{"molecule": "B1", "values": [{"measurement": "Concentration", "setting": "induction 18 o/n", "value": "0.2 mg/mL and 0.1 mg/mL"}, {"measurement": "Concentration", "setting": "induction 25 on", "value": 0.2, "unit": "mg/mL"}, {"measurement": "Concentration", "setting": "induction 37 3 hrs", "value": 0.1, "unit": "mg/mL"}]}
